In article PMC12836620 one finds binding data, which are given here for 1 substance.

Amino acid sequences for entries named in this document (tags omitted). A change or cut given only in a name is not applied to a line headed by its entry.
UniProt Q9Y2I1: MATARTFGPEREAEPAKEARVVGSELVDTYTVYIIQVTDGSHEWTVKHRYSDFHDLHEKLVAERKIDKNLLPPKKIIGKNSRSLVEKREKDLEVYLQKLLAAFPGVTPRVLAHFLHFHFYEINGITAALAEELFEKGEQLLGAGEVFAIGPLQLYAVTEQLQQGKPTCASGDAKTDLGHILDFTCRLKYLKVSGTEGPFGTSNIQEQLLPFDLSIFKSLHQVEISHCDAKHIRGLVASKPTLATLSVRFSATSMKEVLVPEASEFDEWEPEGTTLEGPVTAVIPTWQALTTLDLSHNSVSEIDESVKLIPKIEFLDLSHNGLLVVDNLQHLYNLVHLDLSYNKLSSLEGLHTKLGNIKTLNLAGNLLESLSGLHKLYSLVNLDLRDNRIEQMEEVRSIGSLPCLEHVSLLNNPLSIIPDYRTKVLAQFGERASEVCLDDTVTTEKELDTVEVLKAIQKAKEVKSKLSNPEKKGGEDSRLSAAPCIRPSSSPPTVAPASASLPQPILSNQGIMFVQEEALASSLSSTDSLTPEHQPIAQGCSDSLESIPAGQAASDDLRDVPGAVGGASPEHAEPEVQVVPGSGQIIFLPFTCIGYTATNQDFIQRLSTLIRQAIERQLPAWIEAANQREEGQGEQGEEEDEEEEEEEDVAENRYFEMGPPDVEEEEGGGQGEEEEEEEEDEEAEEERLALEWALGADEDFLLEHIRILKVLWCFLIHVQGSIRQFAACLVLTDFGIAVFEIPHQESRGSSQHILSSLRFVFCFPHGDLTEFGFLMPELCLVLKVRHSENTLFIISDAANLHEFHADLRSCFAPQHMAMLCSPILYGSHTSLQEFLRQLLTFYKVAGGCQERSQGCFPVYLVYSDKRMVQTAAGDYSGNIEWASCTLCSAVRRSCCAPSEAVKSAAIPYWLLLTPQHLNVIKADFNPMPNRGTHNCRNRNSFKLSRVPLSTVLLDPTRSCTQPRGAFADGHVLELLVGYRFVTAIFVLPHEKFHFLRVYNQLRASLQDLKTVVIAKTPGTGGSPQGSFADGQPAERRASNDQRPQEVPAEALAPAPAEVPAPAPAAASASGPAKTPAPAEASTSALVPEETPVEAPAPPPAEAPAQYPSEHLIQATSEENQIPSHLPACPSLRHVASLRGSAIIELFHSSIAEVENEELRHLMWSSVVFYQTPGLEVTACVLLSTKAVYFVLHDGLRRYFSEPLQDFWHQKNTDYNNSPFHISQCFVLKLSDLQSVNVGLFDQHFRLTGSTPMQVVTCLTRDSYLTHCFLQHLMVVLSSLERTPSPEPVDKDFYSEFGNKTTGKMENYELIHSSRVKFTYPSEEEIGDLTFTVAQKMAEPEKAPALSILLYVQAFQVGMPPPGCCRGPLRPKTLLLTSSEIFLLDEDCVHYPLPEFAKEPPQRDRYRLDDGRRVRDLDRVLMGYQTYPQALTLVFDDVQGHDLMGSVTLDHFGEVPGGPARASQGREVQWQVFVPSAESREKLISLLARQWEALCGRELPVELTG
UniProt Q13153: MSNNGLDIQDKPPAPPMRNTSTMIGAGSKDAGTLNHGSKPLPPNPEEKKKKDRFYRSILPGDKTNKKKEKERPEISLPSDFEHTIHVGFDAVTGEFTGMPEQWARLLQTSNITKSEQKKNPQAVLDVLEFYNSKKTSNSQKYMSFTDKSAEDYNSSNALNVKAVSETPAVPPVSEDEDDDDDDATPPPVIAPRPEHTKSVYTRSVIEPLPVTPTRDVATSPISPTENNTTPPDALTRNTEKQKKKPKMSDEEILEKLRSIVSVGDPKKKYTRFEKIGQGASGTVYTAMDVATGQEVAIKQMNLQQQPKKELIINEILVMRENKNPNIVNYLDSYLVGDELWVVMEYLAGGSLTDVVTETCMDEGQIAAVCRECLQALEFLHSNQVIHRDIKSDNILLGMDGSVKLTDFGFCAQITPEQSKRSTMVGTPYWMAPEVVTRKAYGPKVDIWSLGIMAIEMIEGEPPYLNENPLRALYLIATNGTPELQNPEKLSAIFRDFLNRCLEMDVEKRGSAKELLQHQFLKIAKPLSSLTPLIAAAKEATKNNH

Results are given in words; binding and its absence hold for the method and conditions named. In cells and extracts the contact can be indirect. Some binding calls cover weakened binding; strength is not graded here.

The target in experiment [1] is Nischarin (NISCH) C185S, full-length, FLAG-tagged (human) (UniProt Q9Y2I1). The experiment in a line: co-IP; FLAG-NISCH WT or C185S transfected in MDA-MB-231; cells in 25 mM (HG) or 5 mM (LG) glucose (24 h in the methods, 16 h in the legend); lysis in Tris pH 8, 150 mM NaCl, 1 % NP-40; 1 mg lysate with FLAG antibody and protein G agarose at 4 °C; blots for PAK1, Rac1/Cdc42 and integrin α5.

Experiment [2] shares this target. The experiment in a line: proximity ligation; cells expressing NISCH WT or C185S, low glucose (LG); Fig. S7; methods not shown.

For PAK1 (from UniProt Q13153 1-545), the binding entry in experiment [1] and in experiment [2] was “binds” in each case.
